Most values lie at the level of the controls, where differences are scatter.
Legend:
Test in all cases: normalised response (% of control), CellTox Green; higher = less cell death (100 = DMSO, 0 = benzethonium chloride kill control)
Conditions in all cases: incubation time: 72 h
MDA-MB-453 [1] = test system: MDA-MB-453
Procedure: (§1)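 DSRT, 72 h incubation, CellTox Green / CellTiter-Glo readout. Signal is normalised to DMSO and benzethonium chloride controls. Value is the normalised response at dose 2.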

MCF-10A [2] = test system: MCF-10A
Procedure: as §1

BT-549 [3] = test system: BT-549
Procedure: as §1

CAL-120 [4] = test system: CAL-120
Procedure: as §1

MFM-223 [5] = test system: MFM-223
Procedure: as §1

MDA-MB-468 [6] = test system: MDA-MB-468
Procedure: as §1

MDA-MB-231 [7] = test system: MDA-MB-231
Procedure: as §1

HCC1143 [8] = test system: HCC1143
Procedure: as §1

BT-474 [9] = test system: BT-474
Procedure: as §1

DU-4475 [10] = test system: DU-4475
Procedure: as §1

CAL-148 [11] = test system: CAL-148
Procedure: as §1

HDQ-P1 = test system: HDQ-P1
Procedure: as §1

CAL-85-1 [12] = test system: CAL-85-1
Procedure: as §1

MDA-MB-436 [13] = test system: MDA-MB-436
Procedure: as §1

HCC1599 [14] = test system: HCC1599
Procedure: as §1

CAL-51 [15] = test system: CAL-51
Procedure: as §1

MDA-MB-453 [16] = test system: MDA-MB-453; remark: listed apart in the source
Procedure: (§2)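 DSRT, 72 h incubation, CellTox Green / CellTiter-Glo readout. Signal is normalised to DMSO and benzethonium chloride controls. Value is the normalised response at the lowest tested concentration.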

HCC1937 = test system: HCC1937
Procedure: as §2

MCF-10A [17] = test system: MCF-10A; remark: listed apart in the source
Procedure: as §2

BT-549 [18] = test system: BT-549; remark: listed apart in the source
Procedure: as §2

CAL-120 [19] = test system: CAL-120; remark: listed apart in the source
Procedure: as §2

MFM-223 [20] = test system: MFM-223; remark: listed apart in the source
Procedure: as §2

Hs578T [21] = test system: Hs578T
Procedure: as §2

MDA-MB-468 [22] = test system: MDA-MB-468; remark: listed apart in the source
Procedure: as §2

MDA-MB-231 [23] = test system: MDA-MB-231; remark: listed apart in the source
Procedure: as §2

HCC1143 [24] = test system: HCC1143; remark: listed apart in the source
Procedure: as §2

BT-474 [25] = test system: BT-474; remark: listed apart in the source
Procedure: as §2

DU-4475 [26] = test system: DU-4475; remark: listed apart in the source
Procedure: as §2

CAL-148 [27] = test system: CAL-148; remark: listed apart in the source
Procedure: as §2

CAL-85-1 [28] = test system: CAL-85-1; remark: listed apart in the source
Procedure: as §2

MDA-MB-436 [29] = test system: MDA-MB-436; remark: listed apart in the source
Procedure: as §2

HCC1599 [30] = test system: HCC1599; remark: listed apart in the source
Procedure: as §2

CAL-51 [31] = test system: CAL-51; remark: listed apart in the source
Procedure: as §2

Hs578T [32] = test system: Hs578T; remark: listed apart in the source
Procedure: as §1

| SMILES | normalised response (MDA-MB-453 [1]) | normalised response (MCF-10A [2]) | normalised response (BT-549 [3]) | normalised response (CAL-120 [4]) | normalised response (MFM-223 [5]) | normalised response (MDA-MB-468 [6]) | normalised response (MDA-MB-231 [7]) | normalised response (HCC1143 [8]) | normalised response (BT-474 [9]) | normalised response (DU-4475 [10]) | normalised response (CAL-148 [11]) | normalised response (HDQ-P1) | normalised response (CAL-85-1 [12]) | normalised response (MDA-MB-436 [13]) | normalised response (HCC1599 [14]) | normalised response (CAL-51 [15]) | normalised response (MDA-MB-453 [16]) | normalised response (HCC1937) | normalised response (MCF-10A [17]) | normalised response (BT-549 [18]) | normalised response (CAL-120 [19]) | normalised response (MFM-223 [20]) | normalised response (Hs578T [21]) | normalised response (MDA-MB-468 [22]) | normalised response (MDA-MB-231 [23]) | normalised response (HCC1143 [24]) | normalised response (BT-474 [25]) | normalised response (DU-4475 [26]) | normalised response (CAL-148 [27]) | normalised response (CAL-85-1 [28]) | normalised response (MDA-MB-436 [29]) | normalised response (HCC1599 [30]) | normalised response (CAL-51 [31]) | normalised response (Hs578T [32]) |
| --- | --- | --- | --- | --- | --- | --- | --- | --- | --- | --- | --- | --- | --- | --- | --- | --- | --- | --- | --- | --- | --- | --- | --- | --- | --- | --- | --- | --- | --- | --- | --- | --- | --- | --- |
| C[C@]12O[C@H](C[C@]1(O)CO)n1c3ccccc3c3c4c(c5c6ccccc6n2c5c31)CNC4=O [Lestaurtinib] (1 nM) | 94.9% | 67.7% | 88% | 94.5% | 96.8% | 82.2% | 92.9% | 107% | 99.2% | 96.2% | 92.9% | 87.5% | 97.4% | 74.4% | 93.9% | 103% | – | – | – | – | – | – | – | – | – | – | – | – | – | – | – | – | – | – |
| FC(F)c1nc2ccccc2n1-c1nc(N2CCOCC2)nc(N2CCOCC2)n1 [ZSTK474] (1 nM) | – | – | – | – | – | – | – | – | – | – | – | – | – | – | – | – | 104% | 115% | 106% | 99.2% | 107% | 107% | 116% | 104% | 109% | 113% | 101% | 111% | 102% | 105% | 95.8% | 111% | 98% | – |
| CN1CC[C@H](c2c(O)cc(O)c3c(=O)cc(-c4ccccc4Cl)oc23)[C@H](O)C1 [Alvocidib] (1 nM) | – | – | – | – | – | – | – | – | – | – | – | – | – | – | – | – | 113% | – | 102% | 90.7% | 102% | 100% | 104% | 54.9% | 93.9% | 110% | 104% | 99.1% | 108% | 101% | 58.5% | 98.8% | 113% | – |
| Cc1cc(C(C)Nc2ccccc2)c2nc(N3CCOCC3)cc(=O)n2c1 (configuration not stated) [TGX-221] (1 nM) | – | – | – | – | – | – | – | – | – | – | – | – | – | – | – | – | 104% | 97.8% | 98.7% | 97.9% | 99.9% | 105% | – | 96.8% | 106% | 113% | 101% | 100% | 89.3% | 101% | 108% | 107% | 116% | – |
| FC(F)c1nc2ccccc2n1-c1nc(N2CCOCC2)nc(N2CCOCC2)n1 [ZSTK474] (10 nM) | 99.8% | 101% | 113% | 97.2% | 103% | – | 112% | 117% | 106% | 95.7% | 107% | 98.1% | 111% | 98.8% | 102% | 88.4% | – | – | – | – | – | – | – | – | – | – | – | – | – | – | – | – | – | 76% |
| CC1(C)CCC(CN2CCN(c3ccc(C(=O)NS(=O)(=O)c4ccc(NCC5CCOCC5)c([N+](=O)[O-])c4)c(Oc4cnc5[nH]ccc5c4)c3)CC2)=C(c2ccc(Cl)cc2)C1 [ABT-199] (1 nM) | – | – | – | – | – | – | – | – | – | – | – | – | – | – | – | – | 104% | 64.5% | 84.5% | 94.4% | 101% | 101% | 104% | 95.1% | 98.4% | 95.8% | 100% | 99.9% | 103% | 98.7% | 83.8% | 105% | 87.7% | – |
| C=CC(=O)N1CCC[C@@H](n2nc(-c3ccc(Oc4ccccc4)cc3)c3c(N)ncnc32)C1 [Ibrutinib] (0.1 nM) | – | – | – | – | – | – | – | – | – | – | – | – | – | – | – | – | 108% | 69.4% | 100% | 94.9% | 97.5% | 91.8% | 99.4% | 87.8% | 108% | 109% | 102% | 104% | 88% | 98.6% | 53.5% | 106% | 117% | – |
| COc1cc2c(cc1-c1c(C)noc1C)ncc1[nH]c(=O)n([C@H](C)c3ccccn3)c12 [I-BET151] (1 nM) | – | – | – | – | – | – | – | – | – | – | – | – | – | – | – | – | 109% | 70.6% | 91% | 86.8% | 103% | 87.5% | 116% | 119% | 103% | 116% | 101% | 104% | 94.4% | 97% | 96.3% | 105% | 87.7% | – |
| CC(O)(CS(=O)(=O)c1ccc(F)cc1)C(=O)Nc1ccc(C#N)c(C(F)(F)F)c1 (configuration not stated) [Bicalutamide] (1 nM) | – | – | – | – | – | – | – | – | – | – | – | – | – | – | – | – | 108% | 102% | 98.6% | 95.1% | 105% | 97.3% | – | 109% | – | 113% | 102% | 101% | 109% | 98.3% | 83.9% | 94.2% | 121% | – |

— the supplement of paper PMC4862054
